{
  "sequences": {"note": "Amino acid sequences for entries named in this document (tags omitted). A change or cut given only in a name is not applied to a line headed by its entry. Residues count along the entry.", "UniProt P78504, residues 34-1218": "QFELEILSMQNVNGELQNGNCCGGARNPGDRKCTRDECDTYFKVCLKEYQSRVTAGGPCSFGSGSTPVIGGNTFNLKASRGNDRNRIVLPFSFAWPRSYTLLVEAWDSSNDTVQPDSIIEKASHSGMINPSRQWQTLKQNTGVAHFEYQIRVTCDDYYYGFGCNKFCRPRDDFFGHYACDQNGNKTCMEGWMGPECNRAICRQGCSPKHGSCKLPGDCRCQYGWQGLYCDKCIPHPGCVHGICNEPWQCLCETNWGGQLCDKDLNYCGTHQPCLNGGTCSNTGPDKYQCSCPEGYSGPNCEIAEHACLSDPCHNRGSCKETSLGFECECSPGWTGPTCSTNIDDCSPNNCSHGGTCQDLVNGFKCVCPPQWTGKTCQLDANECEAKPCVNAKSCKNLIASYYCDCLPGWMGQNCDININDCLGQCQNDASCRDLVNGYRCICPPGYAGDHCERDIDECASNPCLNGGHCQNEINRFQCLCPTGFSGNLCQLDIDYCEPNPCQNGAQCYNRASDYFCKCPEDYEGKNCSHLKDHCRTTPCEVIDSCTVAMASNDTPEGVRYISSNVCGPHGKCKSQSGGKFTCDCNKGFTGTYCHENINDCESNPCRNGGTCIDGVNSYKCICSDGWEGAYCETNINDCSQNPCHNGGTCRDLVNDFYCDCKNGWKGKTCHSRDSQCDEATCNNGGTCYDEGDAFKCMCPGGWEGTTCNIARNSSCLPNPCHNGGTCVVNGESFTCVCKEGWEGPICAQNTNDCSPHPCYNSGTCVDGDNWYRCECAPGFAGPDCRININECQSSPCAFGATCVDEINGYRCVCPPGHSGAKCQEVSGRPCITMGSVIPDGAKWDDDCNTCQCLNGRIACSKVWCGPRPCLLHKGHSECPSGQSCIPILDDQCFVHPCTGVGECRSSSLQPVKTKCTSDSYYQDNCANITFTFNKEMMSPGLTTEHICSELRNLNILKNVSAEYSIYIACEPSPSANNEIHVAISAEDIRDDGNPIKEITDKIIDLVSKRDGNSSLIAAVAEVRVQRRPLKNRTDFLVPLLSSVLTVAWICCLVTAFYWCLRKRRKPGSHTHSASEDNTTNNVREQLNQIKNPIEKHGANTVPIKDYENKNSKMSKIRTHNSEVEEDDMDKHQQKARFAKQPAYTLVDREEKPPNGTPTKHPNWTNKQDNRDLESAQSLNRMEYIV", "UniProt Q9QXX0, residues 34-1218": "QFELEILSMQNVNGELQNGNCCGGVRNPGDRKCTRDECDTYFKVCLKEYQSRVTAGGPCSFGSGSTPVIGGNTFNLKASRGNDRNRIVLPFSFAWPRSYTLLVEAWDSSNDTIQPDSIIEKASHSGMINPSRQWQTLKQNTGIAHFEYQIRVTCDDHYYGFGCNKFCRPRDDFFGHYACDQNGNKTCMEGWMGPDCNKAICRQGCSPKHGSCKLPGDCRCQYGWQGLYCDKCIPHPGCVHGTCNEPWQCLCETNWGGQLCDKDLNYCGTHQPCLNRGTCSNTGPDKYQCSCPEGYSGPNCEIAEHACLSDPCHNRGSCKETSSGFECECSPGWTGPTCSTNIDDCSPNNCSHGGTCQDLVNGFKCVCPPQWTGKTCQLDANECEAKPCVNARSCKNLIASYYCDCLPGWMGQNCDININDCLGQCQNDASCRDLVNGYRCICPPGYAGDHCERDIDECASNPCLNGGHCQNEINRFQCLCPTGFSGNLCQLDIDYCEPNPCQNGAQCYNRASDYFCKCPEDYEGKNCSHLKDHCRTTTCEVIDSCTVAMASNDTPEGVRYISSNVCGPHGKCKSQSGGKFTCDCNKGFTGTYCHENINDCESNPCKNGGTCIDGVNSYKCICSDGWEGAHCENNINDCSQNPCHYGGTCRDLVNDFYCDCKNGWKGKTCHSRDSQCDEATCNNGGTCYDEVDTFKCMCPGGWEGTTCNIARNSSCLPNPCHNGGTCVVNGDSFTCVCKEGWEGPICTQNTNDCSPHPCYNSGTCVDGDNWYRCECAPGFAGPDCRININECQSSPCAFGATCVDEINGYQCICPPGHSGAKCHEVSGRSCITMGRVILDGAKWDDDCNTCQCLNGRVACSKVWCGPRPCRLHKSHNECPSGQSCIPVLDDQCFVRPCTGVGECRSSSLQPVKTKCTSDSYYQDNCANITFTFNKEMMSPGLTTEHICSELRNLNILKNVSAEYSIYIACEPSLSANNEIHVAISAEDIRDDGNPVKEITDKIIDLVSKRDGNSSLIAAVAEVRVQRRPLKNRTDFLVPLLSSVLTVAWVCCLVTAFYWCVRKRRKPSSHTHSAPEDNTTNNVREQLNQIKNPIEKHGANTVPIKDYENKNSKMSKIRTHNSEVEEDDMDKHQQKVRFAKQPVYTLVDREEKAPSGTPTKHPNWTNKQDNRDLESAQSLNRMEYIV", "UniProt P46531": "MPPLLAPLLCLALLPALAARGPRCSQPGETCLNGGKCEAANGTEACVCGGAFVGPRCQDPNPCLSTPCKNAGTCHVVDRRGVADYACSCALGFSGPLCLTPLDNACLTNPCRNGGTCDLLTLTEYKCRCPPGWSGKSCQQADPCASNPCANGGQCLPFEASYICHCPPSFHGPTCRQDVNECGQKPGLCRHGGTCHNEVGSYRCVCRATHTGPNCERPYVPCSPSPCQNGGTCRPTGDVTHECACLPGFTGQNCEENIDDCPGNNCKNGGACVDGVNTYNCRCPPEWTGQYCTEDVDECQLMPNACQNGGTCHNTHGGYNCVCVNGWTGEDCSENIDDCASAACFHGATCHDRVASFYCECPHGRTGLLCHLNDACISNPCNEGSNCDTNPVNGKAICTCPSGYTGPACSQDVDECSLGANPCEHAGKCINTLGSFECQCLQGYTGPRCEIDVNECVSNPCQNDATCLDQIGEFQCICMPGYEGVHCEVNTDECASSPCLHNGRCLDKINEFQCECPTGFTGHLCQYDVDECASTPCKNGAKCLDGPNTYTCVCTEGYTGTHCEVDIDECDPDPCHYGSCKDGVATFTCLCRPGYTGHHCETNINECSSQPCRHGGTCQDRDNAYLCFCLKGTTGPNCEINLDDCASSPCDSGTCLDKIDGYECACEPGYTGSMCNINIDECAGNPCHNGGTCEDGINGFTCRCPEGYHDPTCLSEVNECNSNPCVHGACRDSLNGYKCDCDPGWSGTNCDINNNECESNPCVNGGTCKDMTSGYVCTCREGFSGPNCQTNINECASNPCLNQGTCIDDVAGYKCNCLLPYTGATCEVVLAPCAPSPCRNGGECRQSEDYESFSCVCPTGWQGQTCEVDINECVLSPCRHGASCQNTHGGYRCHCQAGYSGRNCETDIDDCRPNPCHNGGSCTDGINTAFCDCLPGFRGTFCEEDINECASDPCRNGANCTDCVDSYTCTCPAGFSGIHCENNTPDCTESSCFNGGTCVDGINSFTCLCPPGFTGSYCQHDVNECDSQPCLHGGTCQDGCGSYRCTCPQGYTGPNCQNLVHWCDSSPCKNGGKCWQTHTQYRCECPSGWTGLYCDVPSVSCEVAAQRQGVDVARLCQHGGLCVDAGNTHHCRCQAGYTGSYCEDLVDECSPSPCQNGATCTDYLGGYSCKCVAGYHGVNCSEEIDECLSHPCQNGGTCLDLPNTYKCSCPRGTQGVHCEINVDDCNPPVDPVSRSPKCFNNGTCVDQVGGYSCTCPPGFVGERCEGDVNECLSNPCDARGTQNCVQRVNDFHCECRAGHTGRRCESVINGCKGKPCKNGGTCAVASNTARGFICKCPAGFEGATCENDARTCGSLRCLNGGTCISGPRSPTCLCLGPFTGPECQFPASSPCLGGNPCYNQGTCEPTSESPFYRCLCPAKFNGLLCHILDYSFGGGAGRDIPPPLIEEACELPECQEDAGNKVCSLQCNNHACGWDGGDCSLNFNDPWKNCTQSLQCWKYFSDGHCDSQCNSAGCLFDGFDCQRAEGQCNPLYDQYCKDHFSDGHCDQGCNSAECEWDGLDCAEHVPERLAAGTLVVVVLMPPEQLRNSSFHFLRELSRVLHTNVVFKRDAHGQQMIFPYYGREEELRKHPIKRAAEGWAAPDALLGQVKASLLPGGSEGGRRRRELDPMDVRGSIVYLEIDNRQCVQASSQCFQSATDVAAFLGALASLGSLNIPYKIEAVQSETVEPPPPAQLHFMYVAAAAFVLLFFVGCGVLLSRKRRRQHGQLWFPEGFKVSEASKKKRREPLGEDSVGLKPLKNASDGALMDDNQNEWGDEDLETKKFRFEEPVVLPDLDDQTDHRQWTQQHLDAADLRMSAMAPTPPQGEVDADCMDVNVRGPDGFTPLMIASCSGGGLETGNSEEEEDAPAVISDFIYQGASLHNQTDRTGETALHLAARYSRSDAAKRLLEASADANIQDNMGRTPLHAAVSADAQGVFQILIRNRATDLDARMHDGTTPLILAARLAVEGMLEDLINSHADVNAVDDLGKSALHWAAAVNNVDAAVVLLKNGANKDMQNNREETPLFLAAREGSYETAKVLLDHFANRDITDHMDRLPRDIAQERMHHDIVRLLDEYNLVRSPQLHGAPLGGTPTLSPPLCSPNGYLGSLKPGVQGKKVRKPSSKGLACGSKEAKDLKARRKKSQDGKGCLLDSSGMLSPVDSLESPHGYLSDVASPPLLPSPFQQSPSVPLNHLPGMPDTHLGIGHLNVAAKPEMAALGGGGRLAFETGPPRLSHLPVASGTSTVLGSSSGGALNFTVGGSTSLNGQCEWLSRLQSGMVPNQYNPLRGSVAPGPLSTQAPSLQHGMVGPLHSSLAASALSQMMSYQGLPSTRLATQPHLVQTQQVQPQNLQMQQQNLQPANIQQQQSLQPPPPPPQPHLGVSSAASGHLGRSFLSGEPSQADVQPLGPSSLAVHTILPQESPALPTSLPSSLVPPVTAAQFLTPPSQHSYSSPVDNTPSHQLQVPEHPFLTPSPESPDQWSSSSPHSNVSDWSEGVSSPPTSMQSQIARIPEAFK"},
  "source": "patent US20160108128A1",
  "about": "(CANCER RESEARCH TECHNOLOGY, published 2016)",
  "key": {"[1]": {"biological_target": "T1, human Jagged 1, full length, on cells (human, UniProt P78504 34-1218)", "T1 construct": "whole, on cells; the cell is named under assay; also called hJ1; J1", "assay": "FACS, biotinylated N1-EGF11-13 on avidin-coated beads, HEK293 cells transfected with human J1"}, "[2]": {"biological_target": "murine Jagged 1, full length, on B16F10 cells (mouse) (UniProt Q9QXX0)", "assay": "FACS, biotinylated N1-EGF11-13 on avidin-coated beads, B16F10 cells transfected with murine J1"}},
  "note": "These are yes or no findings as the source states them, for the method shown. Binding can be weak; no strength is given.",
  "data": [
    {"substance": "human Notch 1 EGF11-13 soluble recombinant protein (411-526) (from UniProt P46531) (receptor)", "values": [
      {"measurement": "binding", "setting": "[1]", "result": "binds"},
      {"measurement": "binding", "setting": "[2]", "result": "binds"}
    ]}
  ]
}
